The target of this test is hNav1.7 and the β1 subunit (Homo sapiens, UniProt Q15858). As to the kind of experiment: Tritiated compound competitive binding to membranes from cells heterologously expressing hNav1.7 and the β1 subunit (LBA). Particulars: read-out: Nav1.7 (LBA); competition with 100 pM [3H]compound, 18 h, room temperature; IC50 by 4 parameter logistic model.

By UniProt entry, the sequences of proteins in these tests, tags left out. Residues count along the entry.
UniProt Q15858, whole entry: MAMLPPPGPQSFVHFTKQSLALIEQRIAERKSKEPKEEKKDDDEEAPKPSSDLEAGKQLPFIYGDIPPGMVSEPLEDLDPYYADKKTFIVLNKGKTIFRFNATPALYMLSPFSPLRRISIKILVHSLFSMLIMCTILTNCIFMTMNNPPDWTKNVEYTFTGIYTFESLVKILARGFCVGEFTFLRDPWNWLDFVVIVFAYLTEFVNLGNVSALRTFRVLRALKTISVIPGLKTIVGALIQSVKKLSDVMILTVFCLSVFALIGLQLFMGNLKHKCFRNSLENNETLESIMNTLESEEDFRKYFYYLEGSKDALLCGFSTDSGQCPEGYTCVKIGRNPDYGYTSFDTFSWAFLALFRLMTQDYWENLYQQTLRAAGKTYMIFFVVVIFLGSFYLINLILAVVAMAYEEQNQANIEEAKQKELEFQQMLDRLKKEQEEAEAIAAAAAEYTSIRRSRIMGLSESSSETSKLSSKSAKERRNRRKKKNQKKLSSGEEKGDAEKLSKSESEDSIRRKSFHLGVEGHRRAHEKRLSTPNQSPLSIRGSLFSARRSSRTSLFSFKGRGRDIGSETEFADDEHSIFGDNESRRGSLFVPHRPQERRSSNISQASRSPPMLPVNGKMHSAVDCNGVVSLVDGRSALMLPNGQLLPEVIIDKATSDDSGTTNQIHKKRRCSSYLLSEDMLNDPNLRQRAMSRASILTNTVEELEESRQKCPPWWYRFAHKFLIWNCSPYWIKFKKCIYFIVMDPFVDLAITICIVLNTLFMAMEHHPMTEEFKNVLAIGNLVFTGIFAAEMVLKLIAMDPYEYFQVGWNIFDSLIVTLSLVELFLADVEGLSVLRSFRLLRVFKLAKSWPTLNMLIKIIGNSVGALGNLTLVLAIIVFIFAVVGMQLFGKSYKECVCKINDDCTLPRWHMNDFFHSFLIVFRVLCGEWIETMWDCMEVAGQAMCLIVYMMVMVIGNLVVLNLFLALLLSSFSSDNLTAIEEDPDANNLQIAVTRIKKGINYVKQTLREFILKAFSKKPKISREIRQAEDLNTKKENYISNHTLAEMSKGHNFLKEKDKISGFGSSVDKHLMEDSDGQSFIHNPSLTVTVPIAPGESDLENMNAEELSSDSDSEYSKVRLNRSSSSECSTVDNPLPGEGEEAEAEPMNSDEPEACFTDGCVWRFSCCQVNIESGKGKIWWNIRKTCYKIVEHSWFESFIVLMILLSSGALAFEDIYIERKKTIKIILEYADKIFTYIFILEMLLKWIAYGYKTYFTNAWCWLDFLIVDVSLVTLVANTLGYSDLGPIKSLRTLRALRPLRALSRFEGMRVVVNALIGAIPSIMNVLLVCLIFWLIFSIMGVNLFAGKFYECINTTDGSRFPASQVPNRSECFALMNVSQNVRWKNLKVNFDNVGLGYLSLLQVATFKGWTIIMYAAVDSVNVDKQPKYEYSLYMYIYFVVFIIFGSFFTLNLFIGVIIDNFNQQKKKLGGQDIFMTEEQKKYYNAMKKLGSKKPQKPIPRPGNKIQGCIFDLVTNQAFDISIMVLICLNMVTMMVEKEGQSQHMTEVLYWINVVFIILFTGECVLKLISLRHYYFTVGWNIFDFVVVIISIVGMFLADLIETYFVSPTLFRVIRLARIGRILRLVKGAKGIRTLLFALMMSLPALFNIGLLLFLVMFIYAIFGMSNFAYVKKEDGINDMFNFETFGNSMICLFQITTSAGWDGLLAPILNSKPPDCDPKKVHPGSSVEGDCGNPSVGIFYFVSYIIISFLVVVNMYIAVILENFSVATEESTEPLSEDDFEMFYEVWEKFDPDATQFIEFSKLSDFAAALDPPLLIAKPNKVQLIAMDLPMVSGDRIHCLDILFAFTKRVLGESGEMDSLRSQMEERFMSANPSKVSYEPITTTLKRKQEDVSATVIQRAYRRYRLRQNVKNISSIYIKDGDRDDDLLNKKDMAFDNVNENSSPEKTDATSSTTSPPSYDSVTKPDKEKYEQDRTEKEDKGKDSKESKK
UniProt Q07699, 19-218 partner limits assumed: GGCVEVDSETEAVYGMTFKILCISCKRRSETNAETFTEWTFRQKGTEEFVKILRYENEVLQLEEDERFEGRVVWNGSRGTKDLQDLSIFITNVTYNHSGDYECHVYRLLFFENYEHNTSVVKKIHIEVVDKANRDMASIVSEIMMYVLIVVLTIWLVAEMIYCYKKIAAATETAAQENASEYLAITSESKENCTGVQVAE

The structures given here were assigned with low confidence; some may be wrong.

Turning to `Cn1nccc1[C@H]1C[C@@H](C(F)(F)F)CCN1[C@H]1CCOc2cc(S(=O)(=O)Nc3nccs3)c(F)cc21` (single isomer, unassigned), the IC50 amounted to 1.55 nM.
